Ten sequences from article PMC2174947 can be followed below.

The chains behind the UniProt entries cited, without tags or fusion partners. Residues count along the entry.
UniProt P08047, 2-785: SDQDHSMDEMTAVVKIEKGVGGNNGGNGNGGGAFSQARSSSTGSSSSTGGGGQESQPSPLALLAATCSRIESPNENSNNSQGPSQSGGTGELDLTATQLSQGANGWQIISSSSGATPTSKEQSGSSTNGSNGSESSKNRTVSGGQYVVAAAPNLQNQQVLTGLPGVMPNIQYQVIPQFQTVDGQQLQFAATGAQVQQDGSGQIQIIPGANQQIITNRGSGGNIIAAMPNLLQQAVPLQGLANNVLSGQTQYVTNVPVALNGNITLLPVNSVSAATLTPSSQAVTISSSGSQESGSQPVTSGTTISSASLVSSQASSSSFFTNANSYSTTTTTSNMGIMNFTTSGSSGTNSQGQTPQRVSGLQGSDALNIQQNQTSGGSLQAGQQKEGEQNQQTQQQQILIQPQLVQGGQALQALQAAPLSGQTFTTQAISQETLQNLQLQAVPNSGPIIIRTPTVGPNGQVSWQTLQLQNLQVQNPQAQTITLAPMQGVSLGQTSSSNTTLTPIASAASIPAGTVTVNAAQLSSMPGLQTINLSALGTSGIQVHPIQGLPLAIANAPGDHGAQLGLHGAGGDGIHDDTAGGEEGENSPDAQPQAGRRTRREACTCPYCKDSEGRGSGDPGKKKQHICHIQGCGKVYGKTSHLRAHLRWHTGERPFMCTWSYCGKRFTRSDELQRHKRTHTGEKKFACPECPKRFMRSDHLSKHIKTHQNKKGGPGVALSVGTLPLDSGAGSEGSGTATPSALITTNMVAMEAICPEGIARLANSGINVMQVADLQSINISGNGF
UniProt P08047, whole entry: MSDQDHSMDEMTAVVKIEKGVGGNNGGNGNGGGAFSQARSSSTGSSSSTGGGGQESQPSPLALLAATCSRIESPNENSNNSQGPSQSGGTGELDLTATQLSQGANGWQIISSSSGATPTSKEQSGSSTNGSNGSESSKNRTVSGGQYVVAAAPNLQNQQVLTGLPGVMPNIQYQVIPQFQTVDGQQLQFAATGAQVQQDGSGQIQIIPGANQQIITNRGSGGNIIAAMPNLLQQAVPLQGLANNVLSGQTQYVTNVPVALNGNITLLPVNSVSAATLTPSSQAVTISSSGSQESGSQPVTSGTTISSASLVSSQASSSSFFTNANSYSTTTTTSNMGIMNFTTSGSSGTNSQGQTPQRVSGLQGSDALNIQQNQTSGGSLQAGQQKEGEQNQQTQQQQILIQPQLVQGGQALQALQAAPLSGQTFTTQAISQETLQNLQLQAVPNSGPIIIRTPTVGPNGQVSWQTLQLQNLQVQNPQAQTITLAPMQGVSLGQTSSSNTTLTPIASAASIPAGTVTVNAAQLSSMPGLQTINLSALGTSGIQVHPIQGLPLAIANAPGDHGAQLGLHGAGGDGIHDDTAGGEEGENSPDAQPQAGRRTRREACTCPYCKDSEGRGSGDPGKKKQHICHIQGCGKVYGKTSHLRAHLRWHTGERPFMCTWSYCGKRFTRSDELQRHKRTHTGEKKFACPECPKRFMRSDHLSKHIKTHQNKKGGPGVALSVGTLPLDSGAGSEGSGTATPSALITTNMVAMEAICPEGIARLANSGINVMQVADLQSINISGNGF

The target in series [1] is Sp1 (HepG2 nuclear extract) (Homo sapiens) (UniProt P08047). Briefly: pull-down (DAPA). As to conditions: DAPA: 20 mM HEPES pH 7.6, 10 mM (NH4)2SO4, 1 mM EDTA, 1 mM DTT, 1% Tween 20, 100 mM KCl, 4 C; protein in an extract; label: 5' biotin; letters put together from the description.
The target of series [2] is T1, MAZ (HepG2 nuclear extract) (Homo sapiens) (UniProt P56270).
T1 sequence (looked up, limits assumed): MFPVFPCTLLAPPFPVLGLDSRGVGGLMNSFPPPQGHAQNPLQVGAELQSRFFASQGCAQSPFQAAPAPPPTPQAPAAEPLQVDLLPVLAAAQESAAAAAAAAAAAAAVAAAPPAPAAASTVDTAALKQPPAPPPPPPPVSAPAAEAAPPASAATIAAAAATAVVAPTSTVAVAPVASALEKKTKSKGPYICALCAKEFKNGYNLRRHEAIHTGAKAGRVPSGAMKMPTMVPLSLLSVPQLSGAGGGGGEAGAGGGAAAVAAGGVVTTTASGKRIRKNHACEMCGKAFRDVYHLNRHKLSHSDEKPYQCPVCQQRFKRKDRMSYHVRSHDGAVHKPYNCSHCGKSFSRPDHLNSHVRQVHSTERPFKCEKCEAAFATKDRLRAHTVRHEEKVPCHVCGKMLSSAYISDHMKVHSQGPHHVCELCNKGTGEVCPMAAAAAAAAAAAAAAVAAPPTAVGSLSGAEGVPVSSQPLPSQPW
Briefly: pull-down (DAPA). As to conditions: DAPA: 20 mM HEPES pH 7.6, 10 mM (NH4)2SO4, 1 mM EDTA, 1 mM DTT, 1% Tween 20, 100 mM KCl, 4 C; protein in an extract; label: 5' biotin; letters put together from the description.

For series [3], the target named is T1, MAZ (HepG2 nuclear extract) (Homo sapiens). The experiment in a line: competition with a labelled probe. To be noted: 200-fold excess vs N1; EMSA: 10 mM Tris-HCl pH 7.5, 50 mM NaCl, 5 mM MgCl2, 1 mM EDTA, 10% glycerol, 1 ug poly(dI-dC), 30 C 30 min; protein in an extract. (In EMSA bound probe runs differently from free probe, usually more slowly.)
Series [4] shares this target. The experiment in a line: EMSA. As to conditions: anti-MAZ reduces major complex; EMSA: 10 mM Tris-HCl pH 7.5, 50 mM NaCl, 5 mM MgCl2, 1 mM EDTA, 10% glycerol, 1 ug poly(dI-dC), 30 C 30 min; protein in an extract; label: 32P 5' end.
The target in another series is Sp1 (UniProt P08047). The experiment in a line: EMSA. To be noted: 20-200 ng Sp1; EMSA: 10 mM Tris-HCl pH 7.5, 50 mM NaCl, 5 mM MgCl2, 1 mM EDTA, 10% glycerol, 1 ug poly(dI-dC), 30 C 30 min; recombinant protein; label: 32P 5' end.
A further series has as its target GST-MAZΔF34 (UniProt P56270). The experiment in a line: EMSA. As to conditions: EMSA: 10 mM Tris-HCl pH 7.5, 50 mM NaCl, 5 mM MgCl2, 1 mM EDTA, 10% glycerol, 1 ug poly(dI-dC), 30 C 30 min; recombinant protein; label: 32P 5' end.

The exact form of at least one protein or probe is not confirmed. For some assays here: A negative result means that nothing was seen under these conditions. For some assays here: At least one result comes from cells or an extract, where the contact may be indirect. For some assays here: Protein sequences can lack the tags named with them. For some assays here: The comparison behind a weaker result is the experiment's own reference, which may not be listed here. For some assays here: At least one verdict was read from the data and is not stated in words by the source.

In the case of “CAAGAGCCAGACCCTCCCTCTGGGCTCTGCTGGCCCA (double strand) [DAPA wt]”, the binding result in series [1] and in series [2] was “binds” throughout.

With “CAAGAGCCAGACCCTCCCTCTGTTAGAGTAGTTAAAC (double strand) [DAPA mut -62/-48]”, in series [2], the binding result is listed as “binds more weakly”. Take “CAAGAGCCAGCAAAGAAAGATGGGCTCTGCTGGCCCA (double strand) [DAPA mut -74/-65]”: the binding result in series [1] and in series [2] was “binds more weakly” each time. With “GCCAAGAGCCAGACCCTCCCTCTGGGAACTGCTGGCCCA (double strand) [M10]”, in series [3], the binding result is listed as “no binding”. Still for that read-out and setting: the same measure for “GCCAAGAGCCAGACCCTCCCTCTGGGCAATGCTGGCCCA (double strand) [M11]”: “no binding”.

Turning to “GCCAAGAGCCAGACCCTCCCTCTGGGCTAAGCTGGCCCA (double strand) [M12]”, the binding result in series [3] is listed as “no binding”. Consider “GCCAAGAGCCAGACCCTCCCTCTGGGCTCAACTGGCCCA (double strand) [M13]”, for which, in series [3], the binding result is “no binding”.

“GCCAAGAGCCAGACCCTCCCTCTGGGCTCTAATGGCCCA (double strand) [M14]”: the binding result in series [3] was “no binding”. The same measure, in the same setting: the same measure for “GCCAAGAGCCAGACCCTCCCTCTGGGCTCTGAAGGCCCA (double strand) [M15]”: “no binding”. In the case of “GCCAAGAGCCAGACCCTCCCTCTGGGCTCTGCTGGCCCA (double strand) [wt 34-nt EMSA probe]”, the binding result was “binds” in series [4], “binds” in the series with Sp1 and “no binding” with GST-MAZΔF34.
